# The supplement of paper PMC10849652
# The chains behind the UniProt entries cited, without tags or fusion partners. Where a name states a change or a piece, a line headed by the entry shows the natural chain unless it says otherwise.
# UniProt O95059: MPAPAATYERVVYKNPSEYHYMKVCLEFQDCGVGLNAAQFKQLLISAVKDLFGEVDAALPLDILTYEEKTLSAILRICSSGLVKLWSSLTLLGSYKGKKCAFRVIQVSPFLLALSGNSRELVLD
# UniProt Q7L099: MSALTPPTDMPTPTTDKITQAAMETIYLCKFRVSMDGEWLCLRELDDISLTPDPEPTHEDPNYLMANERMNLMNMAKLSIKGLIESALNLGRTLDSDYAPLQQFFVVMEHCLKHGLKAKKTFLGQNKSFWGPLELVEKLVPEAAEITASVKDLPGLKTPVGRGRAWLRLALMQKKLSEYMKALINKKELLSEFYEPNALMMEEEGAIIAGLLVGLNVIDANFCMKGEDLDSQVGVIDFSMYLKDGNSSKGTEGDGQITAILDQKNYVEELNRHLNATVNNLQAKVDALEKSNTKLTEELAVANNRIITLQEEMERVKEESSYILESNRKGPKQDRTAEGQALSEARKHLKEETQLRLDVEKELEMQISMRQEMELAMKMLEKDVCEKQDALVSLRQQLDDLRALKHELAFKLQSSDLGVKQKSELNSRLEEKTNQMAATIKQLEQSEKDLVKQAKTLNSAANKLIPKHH
# UniProt Q8N488: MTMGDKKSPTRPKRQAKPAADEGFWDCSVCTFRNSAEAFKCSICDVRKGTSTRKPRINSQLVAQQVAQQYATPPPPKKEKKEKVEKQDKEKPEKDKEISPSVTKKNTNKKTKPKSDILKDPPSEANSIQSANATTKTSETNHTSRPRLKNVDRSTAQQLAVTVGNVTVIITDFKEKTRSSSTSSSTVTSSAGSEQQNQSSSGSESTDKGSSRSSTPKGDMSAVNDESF
# UniProt Q9Y3A4: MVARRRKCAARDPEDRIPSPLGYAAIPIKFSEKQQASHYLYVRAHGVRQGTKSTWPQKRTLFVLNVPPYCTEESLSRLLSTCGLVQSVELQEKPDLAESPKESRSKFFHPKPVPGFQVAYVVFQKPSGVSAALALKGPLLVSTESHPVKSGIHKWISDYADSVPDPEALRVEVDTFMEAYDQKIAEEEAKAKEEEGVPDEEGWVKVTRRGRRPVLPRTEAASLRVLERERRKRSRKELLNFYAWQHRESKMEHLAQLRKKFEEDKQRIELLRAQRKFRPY
# UniProt Q96T23: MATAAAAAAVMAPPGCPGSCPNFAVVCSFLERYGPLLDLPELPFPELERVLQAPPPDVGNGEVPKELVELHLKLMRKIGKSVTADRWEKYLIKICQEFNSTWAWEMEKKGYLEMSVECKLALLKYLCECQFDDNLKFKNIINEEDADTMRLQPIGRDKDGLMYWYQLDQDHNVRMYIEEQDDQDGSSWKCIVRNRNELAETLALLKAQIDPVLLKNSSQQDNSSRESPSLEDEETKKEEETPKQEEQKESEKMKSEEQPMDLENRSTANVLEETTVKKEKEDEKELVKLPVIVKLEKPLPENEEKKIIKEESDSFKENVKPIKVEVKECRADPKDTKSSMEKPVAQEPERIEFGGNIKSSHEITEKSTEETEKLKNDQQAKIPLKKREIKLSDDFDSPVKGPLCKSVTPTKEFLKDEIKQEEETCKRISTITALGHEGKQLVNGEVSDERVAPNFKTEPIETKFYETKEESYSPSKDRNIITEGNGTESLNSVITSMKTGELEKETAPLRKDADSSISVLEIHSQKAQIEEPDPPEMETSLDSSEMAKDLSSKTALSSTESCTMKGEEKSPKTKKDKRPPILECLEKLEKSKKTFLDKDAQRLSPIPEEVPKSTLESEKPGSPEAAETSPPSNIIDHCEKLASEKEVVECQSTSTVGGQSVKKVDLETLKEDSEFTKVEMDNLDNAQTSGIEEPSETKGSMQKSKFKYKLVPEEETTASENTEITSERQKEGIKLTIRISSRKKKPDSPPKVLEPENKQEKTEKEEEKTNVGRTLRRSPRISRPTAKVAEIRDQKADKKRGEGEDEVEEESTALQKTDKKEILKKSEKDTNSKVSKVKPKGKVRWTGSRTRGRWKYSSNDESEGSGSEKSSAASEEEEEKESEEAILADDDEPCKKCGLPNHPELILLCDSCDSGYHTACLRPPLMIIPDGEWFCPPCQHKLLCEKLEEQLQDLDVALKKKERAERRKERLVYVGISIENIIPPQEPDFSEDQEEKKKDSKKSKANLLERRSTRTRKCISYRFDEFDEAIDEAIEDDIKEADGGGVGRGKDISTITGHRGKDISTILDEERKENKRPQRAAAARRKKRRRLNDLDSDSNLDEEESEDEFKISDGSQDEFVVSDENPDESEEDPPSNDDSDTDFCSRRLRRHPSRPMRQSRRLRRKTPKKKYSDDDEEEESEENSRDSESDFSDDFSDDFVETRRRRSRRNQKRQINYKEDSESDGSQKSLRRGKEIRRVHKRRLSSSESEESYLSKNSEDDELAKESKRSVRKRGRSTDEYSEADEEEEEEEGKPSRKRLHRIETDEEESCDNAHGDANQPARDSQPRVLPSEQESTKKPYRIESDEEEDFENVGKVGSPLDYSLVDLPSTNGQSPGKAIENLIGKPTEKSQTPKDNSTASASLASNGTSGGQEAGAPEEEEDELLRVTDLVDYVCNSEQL
# UniProt P31350, whole entry, looked up: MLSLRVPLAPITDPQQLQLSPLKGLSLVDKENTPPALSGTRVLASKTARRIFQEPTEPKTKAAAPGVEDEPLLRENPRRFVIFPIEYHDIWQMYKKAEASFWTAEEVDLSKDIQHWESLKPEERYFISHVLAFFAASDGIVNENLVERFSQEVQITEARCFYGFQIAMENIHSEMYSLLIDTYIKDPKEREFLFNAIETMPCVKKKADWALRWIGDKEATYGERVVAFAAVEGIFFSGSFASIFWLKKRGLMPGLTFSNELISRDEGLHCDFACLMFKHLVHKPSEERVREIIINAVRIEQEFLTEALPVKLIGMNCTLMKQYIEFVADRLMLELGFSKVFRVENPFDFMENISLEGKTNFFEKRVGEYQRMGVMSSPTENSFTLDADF
# UniProt Q15050: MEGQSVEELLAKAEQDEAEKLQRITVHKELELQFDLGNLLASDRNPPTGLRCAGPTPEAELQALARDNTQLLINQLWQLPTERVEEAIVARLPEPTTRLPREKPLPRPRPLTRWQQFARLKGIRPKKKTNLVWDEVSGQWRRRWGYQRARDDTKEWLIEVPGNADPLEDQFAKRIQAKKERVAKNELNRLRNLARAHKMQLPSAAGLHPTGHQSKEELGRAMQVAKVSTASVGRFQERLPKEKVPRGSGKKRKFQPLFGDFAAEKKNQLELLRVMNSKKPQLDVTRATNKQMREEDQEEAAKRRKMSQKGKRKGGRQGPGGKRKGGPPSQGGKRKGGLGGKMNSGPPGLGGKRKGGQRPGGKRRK
# UniProt P04843: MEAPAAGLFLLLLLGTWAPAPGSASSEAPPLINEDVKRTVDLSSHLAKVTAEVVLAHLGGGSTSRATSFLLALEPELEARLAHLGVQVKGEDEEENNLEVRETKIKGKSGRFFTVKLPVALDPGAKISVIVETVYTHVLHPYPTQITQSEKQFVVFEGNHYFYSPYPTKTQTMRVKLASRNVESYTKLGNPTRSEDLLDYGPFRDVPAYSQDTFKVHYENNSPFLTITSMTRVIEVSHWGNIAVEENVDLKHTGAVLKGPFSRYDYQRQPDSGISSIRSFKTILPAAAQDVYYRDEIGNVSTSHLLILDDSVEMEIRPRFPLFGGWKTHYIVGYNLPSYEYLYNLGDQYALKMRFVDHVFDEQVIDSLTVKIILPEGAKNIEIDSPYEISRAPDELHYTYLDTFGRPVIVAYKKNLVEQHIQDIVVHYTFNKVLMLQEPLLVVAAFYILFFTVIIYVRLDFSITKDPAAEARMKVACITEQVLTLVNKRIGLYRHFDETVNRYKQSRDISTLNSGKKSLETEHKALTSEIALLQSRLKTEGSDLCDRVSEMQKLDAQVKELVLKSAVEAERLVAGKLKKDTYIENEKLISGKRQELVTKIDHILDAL
# UniProt P57060: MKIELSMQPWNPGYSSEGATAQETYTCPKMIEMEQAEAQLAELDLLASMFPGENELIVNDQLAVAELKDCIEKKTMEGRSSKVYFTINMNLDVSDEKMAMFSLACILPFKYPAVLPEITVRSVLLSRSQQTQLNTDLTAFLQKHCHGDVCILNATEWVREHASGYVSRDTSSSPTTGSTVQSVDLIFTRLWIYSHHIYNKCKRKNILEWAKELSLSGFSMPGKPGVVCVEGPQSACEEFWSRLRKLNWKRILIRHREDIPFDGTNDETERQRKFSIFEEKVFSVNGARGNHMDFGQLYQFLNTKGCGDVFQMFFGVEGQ
# UniProt Q9BUL9: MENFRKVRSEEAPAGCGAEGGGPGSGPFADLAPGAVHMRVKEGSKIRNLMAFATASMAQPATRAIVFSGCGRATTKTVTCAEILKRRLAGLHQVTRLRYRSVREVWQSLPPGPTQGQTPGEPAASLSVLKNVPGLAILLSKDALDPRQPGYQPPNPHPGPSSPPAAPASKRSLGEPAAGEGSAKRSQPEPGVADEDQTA
# UniProt Q9HA92: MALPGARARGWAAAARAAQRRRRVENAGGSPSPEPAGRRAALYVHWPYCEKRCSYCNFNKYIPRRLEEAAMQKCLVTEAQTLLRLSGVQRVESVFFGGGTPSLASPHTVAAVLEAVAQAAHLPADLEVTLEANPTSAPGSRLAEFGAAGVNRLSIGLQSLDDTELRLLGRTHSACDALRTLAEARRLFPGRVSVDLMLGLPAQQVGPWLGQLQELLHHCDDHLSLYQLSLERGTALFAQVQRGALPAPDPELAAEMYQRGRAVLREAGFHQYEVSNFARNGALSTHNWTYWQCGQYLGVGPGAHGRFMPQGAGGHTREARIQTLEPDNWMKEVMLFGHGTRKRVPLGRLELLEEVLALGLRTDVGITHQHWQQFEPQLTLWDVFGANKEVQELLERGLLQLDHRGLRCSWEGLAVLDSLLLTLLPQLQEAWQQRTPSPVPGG
# UniProt Q8WWV3: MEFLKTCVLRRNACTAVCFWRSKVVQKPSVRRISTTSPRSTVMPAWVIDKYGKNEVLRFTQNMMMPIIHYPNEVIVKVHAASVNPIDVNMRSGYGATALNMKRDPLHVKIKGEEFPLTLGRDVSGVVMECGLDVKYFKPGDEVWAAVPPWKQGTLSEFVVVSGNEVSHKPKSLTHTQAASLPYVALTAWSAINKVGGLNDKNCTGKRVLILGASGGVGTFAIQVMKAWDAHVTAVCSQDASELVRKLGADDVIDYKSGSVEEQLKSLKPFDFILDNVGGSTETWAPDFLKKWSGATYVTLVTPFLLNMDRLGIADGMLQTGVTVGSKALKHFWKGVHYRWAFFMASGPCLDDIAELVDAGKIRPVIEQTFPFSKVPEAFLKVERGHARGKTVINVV
# UniProt Q15404: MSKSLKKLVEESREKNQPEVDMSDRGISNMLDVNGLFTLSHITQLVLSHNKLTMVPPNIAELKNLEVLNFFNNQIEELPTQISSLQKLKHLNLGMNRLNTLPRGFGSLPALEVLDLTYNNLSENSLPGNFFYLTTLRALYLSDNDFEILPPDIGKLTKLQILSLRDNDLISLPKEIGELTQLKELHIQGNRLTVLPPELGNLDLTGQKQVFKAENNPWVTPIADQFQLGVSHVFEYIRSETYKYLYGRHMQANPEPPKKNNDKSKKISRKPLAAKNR
# UniProt Q7LG56, whole entry, looked up: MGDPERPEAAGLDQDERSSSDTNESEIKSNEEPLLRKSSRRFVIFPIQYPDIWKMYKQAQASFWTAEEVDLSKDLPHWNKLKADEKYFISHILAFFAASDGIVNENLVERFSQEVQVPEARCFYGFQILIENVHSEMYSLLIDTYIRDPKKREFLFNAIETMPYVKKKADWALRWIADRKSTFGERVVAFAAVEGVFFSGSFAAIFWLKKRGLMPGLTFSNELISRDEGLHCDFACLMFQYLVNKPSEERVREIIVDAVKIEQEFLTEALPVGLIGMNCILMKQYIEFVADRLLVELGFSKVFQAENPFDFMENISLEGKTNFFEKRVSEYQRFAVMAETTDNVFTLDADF
# UniProt Q9NYV6: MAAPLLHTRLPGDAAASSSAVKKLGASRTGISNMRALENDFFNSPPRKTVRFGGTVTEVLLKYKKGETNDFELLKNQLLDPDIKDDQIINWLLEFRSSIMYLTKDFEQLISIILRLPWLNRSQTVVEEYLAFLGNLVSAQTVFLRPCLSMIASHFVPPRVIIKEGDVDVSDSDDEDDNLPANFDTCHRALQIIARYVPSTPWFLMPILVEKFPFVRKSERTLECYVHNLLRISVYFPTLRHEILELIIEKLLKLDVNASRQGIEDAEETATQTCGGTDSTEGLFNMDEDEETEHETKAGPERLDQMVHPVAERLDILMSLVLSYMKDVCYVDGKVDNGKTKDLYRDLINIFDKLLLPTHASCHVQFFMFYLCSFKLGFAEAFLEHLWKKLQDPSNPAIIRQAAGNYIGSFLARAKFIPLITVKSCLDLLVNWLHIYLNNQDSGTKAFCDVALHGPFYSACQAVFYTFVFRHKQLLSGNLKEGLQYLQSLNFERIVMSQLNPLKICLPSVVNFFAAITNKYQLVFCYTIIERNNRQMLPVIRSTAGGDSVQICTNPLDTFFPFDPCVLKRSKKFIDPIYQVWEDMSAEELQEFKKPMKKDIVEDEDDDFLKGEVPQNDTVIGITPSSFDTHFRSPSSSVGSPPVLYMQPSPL
# This is one part of the list.
# Compound: C=CC(=O)N1CCC[C@@H](n2nc(-c3ccc(Oc4ccccc4)cc3)c3c(N)ncnc32)C1 [ibrutinib]
# Test: log2 fold change, soluble protein after heating vs DMSO (PISA); higher = thermal stabilisation; K562 lysate, 10 uM; active = over 0.2 and 3.5 SD of the protein, either way, in both replicates (recomputed)
# Outline: (§1)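 K562 pellets were dounce-homogenised in PBS pH 7.4 containing 1 mM MgCl2, and the crude extract, at 1 mg/mL protein, was exposed to 10 μM compound for 30 min. Aliquots were heated for 3 min across 48°C-58°C, pooled, brought to 0.5% NP-40 at 4°C and spun at 21,000xg for 90 min, with the supernatant taken as soluble protein. TMTpro 16plex LC-MS/MS with equalised channel sums quantified that protein. Values are log-two fold changes in thermal stability relative to solvent controls, taken from duplicates.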
row,Target,log2 fold change
1,RPS27A (UniProt P62979),inactive: -0.034
2,RPP14 (UniProt O95059),inactive: 0.017
3,RUFY3 isoform 2 (UniProt Q7L099),inactive: 0.146
4,RPL36AL (UniProt Q969Q0),inactive: -0.038
5,RPSA (UniProt P08865),inactive: 0.009
6,RTTN (UniProt Q86VV8),inactive: 0.095
7,RYR1 (UniProt P21817),inactive: 0.091
8,RPS23 (UniProt P62266),inactive: 0.012
9,RYBP (UniProt Q8N488),inactive: -0.045
10,RRP7A (UniProt Q9Y3A4),inactive: 0.081
11,RPS24 isoform 4 (UniProt P62847),inactive: -0.018
12,RPS28 (UniProt P62857),inactive: -0.013
13,RPS17 (UniProt P08708),inactive: 0.015
14,RSF1 (UniProt Q96T23),inactive: -0.021
15,RRM2 isoform 2 (UniProt P31350),inactive: 0.065
16,RRS1 (UniProt Q15050),inactive: -0.018

row,Target,log2 fold change
1,RPL39P5 (UniProt Q59GN2),inactive: -0.021
2,RXRB isoform 3 (UniProt P28702),inactive: 0.047
3,RPN1 (UniProt P04843),inactive: -0.017
4,RPP25L (UniProt Q8N5L8),inactive: -0.064
5,"RPS7, A0A2R8Y623",inactive: -0.059
6,RWDD2B (UniProt P57060),inactive: 0.048
7,S100A14 (UniProt Q9HCY8),inactive: -0.082
8,RPP25 (UniProt Q9BUL9),inactive: 0.022
9,RSAD1 (UniProt Q9HA92),inactive: -0.097
10,S100A2 (UniProt P29034),inactive: -0.14
11,RTN4IP1 (UniProt Q8WWV3),inactive: 0.073
12,RSU1 (UniProt Q15404),inactive: 0
13,RRM2B isoform 6 (UniProt Q7LG56),inactive: 0.008
14,RRN3 (UniProt Q9NYV6),inactive: 0.228
15,RPP21 isoform 4 (UniProt Q9H633),inactive: 0.018
16,S100A16 (UniProt Q96FQ6),inactive: 0.186

# Compound: CC(=O)c1cnc2ccc(-c3cc(Cl)c(O)c(Cl)c3)nc2c1N[C@H]1CC[C@H](CN(C)C)CC1
# Test: as above
# Outline: as §1
row,Target,log2 fold change
1,RPS27A (UniProt P62979),inactive: 0
2,RPP14 (UniProt O95059),inactive: -0.006
3,RUFY3 isoform 2 (UniProt Q7L099),inactive: -0.021
4,RPL36AL (UniProt Q969Q0),inactive: 0.004
5,RPSA (UniProt P08865),inactive: -0.013
6,RTTN (UniProt Q86VV8),inactive: 0.155
7,RYR1 (UniProt P21817),inactive: 0.008
8,RPS23 (UniProt P62266),inactive: -0.007
9,RYBP (UniProt Q8N488),inactive: -0.009
10,RRP7A (UniProt Q9Y3A4),inactive: 0.018
11,RPS24 isoform 4 (UniProt P62847),inactive: -0.058
12,RPS28 (UniProt P62857),inactive: 0.006
13,RPS17 (UniProt P08708),inactive: 0.033
14,RSF1 (UniProt Q96T23),inactive: 0.092
15,RRM2 isoform 2 (UniProt P31350),inactive: 0.004
16,RRS1 (UniProt Q15050),inactive: -0.031

row,Target,log2 fold change
1,RPL39P5 (UniProt Q59GN2),inactive: -0.051
2,RXRB isoform 3 (UniProt P28702),inactive: -0.037
3,RPN1 (UniProt P04843),inactive: -0.006
4,RPP25L (UniProt Q8N5L8),inactive: -0.001
5,"RPS7, A0A2R8Y623",inactive: -0.187
6,RWDD2B (UniProt P57060),inactive: 0.006
7,S100A14 (UniProt Q9HCY8),inactive: 0.025
8,RPP25 (UniProt Q9BUL9),inactive: -0.036
9,RSAD1 (UniProt Q9HA92),inactive: -0.191
10,S100A2 (UniProt P29034),inactive: -0.039
11,RTN4IP1 (UniProt Q8WWV3),inactive: 0.02
12,RSU1 (UniProt Q15404),inactive: 0.005
13,RRM2B isoform 6 (UniProt Q7LG56),inactive: -0.008
14,RRN3 (UniProt Q9NYV6),inactive: -0.007
15,RPP21 isoform 4 (UniProt Q9H633),inactive: -0.119
16,S100A16 (UniProt Q96FQ6),inactive: -0.022

# Compound: CC(C)(C)Cn1c(N)nc2ccc(-c3[nH]c(C(C)(C)C)nc3-c3ccc(F)cc3)nc21 [ralimetinib]
# Test: as above
# Outline: as §1
row,Target,log2 fold change
1,RPS27A (UniProt P62979),inactive: 0.082
2,RPP14 (UniProt O95059),inactive: 0.059
3,RUFY3 isoform 2 (UniProt Q7L099),inactive: 0.011
4,RPL36AL (UniProt Q969Q0),inactive: -0.018
5,RPSA (UniProt P08865),inactive: -0.004
6,RTTN (UniProt Q86VV8),inactive: 0.145
7,RYR1 (UniProt P21817),inactive: -0.028
8,RPS23 (UniProt P62266),inactive: -0.008
9,RYBP (UniProt Q8N488),inactive: -0.055
10,RRP7A (UniProt Q9Y3A4),inactive: 0.049
11,RPS24 isoform 4 (UniProt P62847),inactive: -0.02
12,RPS28 (UniProt P62857),inactive: 0.007
13,RPS17 (UniProt P08708),inactive: -0.032
14,RSF1 (UniProt Q96T23),inactive: -0.025
15,RRM2 isoform 2 (UniProt P31350),inactive: 0.003
16,RRS1 (UniProt Q15050),inactive: -0.019
17,RPL39P5 (UniProt Q59GN2),inactive: 0.017
18,RPN1 (UniProt P04843),inactive: -0.006
19,RPP25L (UniProt Q8N5L8),inactive: -0.024
20,RWDD2B (UniProt P57060),inactive: 0.017
21,S100A14 (UniProt Q9HCY8),inactive: -0.099
22,RPP25 (UniProt Q9BUL9),inactive: 0.039
23,RSAD1 (UniProt Q9HA92),inactive: 0.098
24,S100A2 (UniProt P29034),inactive: 0.088
25,RTN4IP1 (UniProt Q8WWV3),inactive: 0.012
26,RSU1 (UniProt Q15404),inactive: -0.005
27,RRM2B isoform 6 (UniProt Q7LG56),inactive: 0.016
28,RRN3 (UniProt Q9NYV6),inactive: 0.098
29,RPP21 isoform 4 (UniProt Q9H633),inactive: -0.018
